Measured values: patent US8299048B2, “Hexahydrocyclopentyl[f]indazole sulfonamides and derivatives thereof as selective glucocorticoid receptor modulators” (Merck Sharp & Dohme Corp., priority 2008, dated 2012)
Some of these results come from one statement about several compounds together.

Target: T1, glucocorticoid receptor (Homo sapiens, UniProt P04150)
T1 construct: endogenous in cells
T1 sequence (P04150 1-777): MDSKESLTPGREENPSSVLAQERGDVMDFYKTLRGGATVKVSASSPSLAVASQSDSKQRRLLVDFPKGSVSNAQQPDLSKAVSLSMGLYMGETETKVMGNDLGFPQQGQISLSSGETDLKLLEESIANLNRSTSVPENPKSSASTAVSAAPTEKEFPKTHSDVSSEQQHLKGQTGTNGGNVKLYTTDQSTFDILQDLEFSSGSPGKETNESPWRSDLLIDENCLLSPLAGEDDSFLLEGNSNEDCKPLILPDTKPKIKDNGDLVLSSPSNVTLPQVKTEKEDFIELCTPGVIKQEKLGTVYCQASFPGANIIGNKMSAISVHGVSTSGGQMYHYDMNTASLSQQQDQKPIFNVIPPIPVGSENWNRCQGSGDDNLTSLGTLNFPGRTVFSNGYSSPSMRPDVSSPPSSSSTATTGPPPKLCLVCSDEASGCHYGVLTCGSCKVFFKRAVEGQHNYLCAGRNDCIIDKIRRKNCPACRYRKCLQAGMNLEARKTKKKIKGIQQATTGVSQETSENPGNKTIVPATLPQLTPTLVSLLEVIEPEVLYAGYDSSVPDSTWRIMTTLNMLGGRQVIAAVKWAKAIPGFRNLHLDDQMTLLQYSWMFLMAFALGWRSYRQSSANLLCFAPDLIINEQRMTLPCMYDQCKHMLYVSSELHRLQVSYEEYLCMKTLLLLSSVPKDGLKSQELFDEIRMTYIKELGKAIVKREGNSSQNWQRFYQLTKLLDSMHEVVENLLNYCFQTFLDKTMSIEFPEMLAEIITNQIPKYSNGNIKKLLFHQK
Experiment: Ligand binding assay (GR BIND)
Settings: displacement of 3H-DEX, MDA-MB-453 cell lysate, DEX as reference
How it was run: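 Displacement of tritiated dexamethasone (6 nM trace solution) from receptor in cell supernatant was measured after overnight incubation at 4 °C in molybdate-containing TEGM, pH 7.2, 2% ethanol. Hydroxylapatite pulled down the receptor–ligand complex for filter washing and scintillation counting, with dexamethasone as reference.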

SMILES | IC50
Cc1ccc(S(=O)(=O)N(CCO)C[C@H]2CCC3=Cc4c(cnn4-c4ccc(F)cc4)C[C@@]32C)s1 [Example 64, N-{[(4αR,5S)-1-(4-fluorophenyl)-4α-methyl-1,4,4α,5,6,7-hexahydrocyclopenta[f]indazol-5-yl]methyl}-N-(2-hydroxyethyl)-5-methylthiophene-2-sulfonamide] | < 1000 nM
Cn1cc(S(=O)(=O)N(CCO)C[C@H]2CCC3=Cc4c(cnn4-c4ccc(F)cc4)C[C@@]32C)c(C(F)(F)F)n1 [Example 65, N-{[(4αR,5S)-1-(4-fluorophenyl)-4α-methyl-1,4,4α,5,6,7-hexahydrocyclopenta[f]indazol-5-yl]methyl}-N-(2-hydroxyethyl)-1-methyl-3-(trifluoromethyl)-1H-pyrazole-4-sulfonamide] | < 1000 nM
Cc1cc(S(=O)(=O)N(CCO)C[C@H]2CCC3=Cc4c(cnn4-c4ccc(F)cc4)C[C@@]32C)c(C)o1 [Example 66, N-{[(4αR,5S)-1-(4-fluorophenyl)-4α-methyl-1,4,4α,5,6,7-hexahydrocyclopenta[f]indazol-5-yl]methyl}-N-(2-hydroxyethyl)-2,5-dimethylfuran-3-sulfonamide] | < 1000 nM
Cn1nc(C(F)(F)F)cc1-c1ccc(S(=O)(=O)N(CCO)C[C@H]2CCC3=Cc4c(cnn4-c4ccc(F)cc4)C[C@@]32C)s1 [Example 67, N-{[(4αR,5S)-1-(4-fluorophenyl)-4α-methyl-1,4,4α,5,6,7-hexahydrocyclopenta[f]indazol-5-yl]methyl}-N-(2-hydroxyethyl)-5-[1-methyl-3-(trifluoromethyl)-1H-pyrazole-5-yl]thiophene-2-sulfonamide] | < 1000 nM
C[C@]12Cc3cnn(-c4ccc(F)cc4)c3C=C1CC[C@@H]2CN(CCO)S(=O)(=O)c1cccc(C#N)c1 [Example 68, 3-cyano-N-{[(4αR,5S)-1-(4-fluorophenyl)-4α-methyl-1,4,4α,5,6,7-hexahydrocyclopenta[f]indazol-5-yl]methyl}-N-(2-hydroxyethyl)benezenesulfonamide] | < 1000 nM
C[C@]12Cc3cnn(-c4ccc(F)cc4)c3C=C1CC[C@@H]2CN(CCO)S(=O)(=O)c1ccc(Oc2cccc(Cl)c2C#N)cc1 [Example 69, 4-(3-chloro-2-cyanophenoxy)-N-{[(4αR,5S)-1-(4-fluorophenyl)-4α-methyl-1,4,4α,5,6,7-hexahydrocyclopenta[f]indazol-5-yl]methyl}-N-(2-hydroxyethyl)benzenesulfonamide] | < 1000 nM
C[C@]12Cc3cnn(-c4ccc(F)cc4)c3C=C1CC[C@@H]2CN(CCO)S(=O)(=O)c1ccccc1C(F)(F)F [Example 70, N-{[(4αR,5S)-1-(4-fluorophenyl)-4α-methyl-1,4,4α,5,6,7-hexahydrocyclopenta[f]indazol-5-yl]methyl}-N-(2-hydroxyethyl)-2-(trifluoromethyl)benzenesulfonamide] | < 1000 nM
Cc1noc(C)c1S(=O)(=O)N(CCO)C[C@H]1CCC2=Cc3c(cnn3-c3ccc(F)cc3)C[C@@]21C [Example 71, N-{[(4αR,5S)-1-(4-fluorophenyl)-4α-methyl-1,4,4α,5,6,7-hexahydrocyclopenta[f]indazol-5-yl]methyl}-N-(2-hydroxyethyl)-3,5-dimethylisoxazole-4-sulfonamide] | < 1000 nM
C[C@]12Cc3cnn(-c4ccc(F)cc4)c3C=C1CC[C@@H]2CN(CCO)S(=O)(=O)c1cc(F)cc(F)c1 [Example 72] | < 1000 nM
COC(=O)c1ccccc1S(=O)(=O)N(CCO)C[C@H]1CCC2=Cc3c(cnn3-c3ccc(F)cc3)C[C@@]21C [Example 73, methyl 2-{[{[(4αR,5S)-1-(4-fluorophenyl)-4α-methyl-1,4,4α,5,6,7-hexahydrocyclopenta[f]indazol-5-yl]methyl}(2-hydroxyethyl)amino]sulfonyl}benzoate] | < 1000 nM
C[C@]12Cc3cnn(-c4ccc(F)cc4)c3C=C1CC[C@@H]2CN(CCO)S(=O)(=O)c1ccc(Oc2ccccn2)cc1 [Example 74, N-{[(4αR,5S)-1-(4-fluorophenyl)-4α-methyl-1,4,4α,5,6,7-hexahydrocyclopenta[f]indazol-5-yl]methyl}-N-(2-hydroxyethyl)-4-(pyridin-2-yloxy)benzenesulfonamide] | < 1000 nM
C[C@]12Cc3cnn(-c4ccc(F)cc4)c3C=C1CC[C@@H]2CN(CCO)S(=O)(=O)Cc1ccccc1 [Example 75, N-{[(4αR,5S)-1-(4-fluorophenyl)-4α-methyl-1,4,4α,5,6,7-hexahydrocyclopenta[f]indazol-5-yl]methyl}-N-(2-hydroxyethyl)-1-phenylmethanesulfonamide] | < 1000 nM
CNC(=O)Nc1ccc(S(=O)(=O)N(CCO)C[C@H]2CCC3=Cc4c(cnn4-c4ccc(F)cc4)C[C@@]32C)c(Cl)c1 [Example 76, 2-chloro-N-{[(4αR,5S)-1-(4-fluorophenyl)-4α-methyl-1,4,4α,5,6,7-hexahydrocyclopenta[f]indazol-5-yl]methyl}-N-(2-hydroxyethyl)-4-{[(methylamino)carbonyl]amino}-benzenesulfonamide] | < 1000 nM
Cc1ccccc1S(=O)(=O)N(CCO)C[C@H]1CCC2=Cc3c(cnn3-c3ccc(F)cc3)C[C@@]21C [Example 77, N-{[(4αR,5S)-1-(4-fluorophenyl)-4α-methyl-1,4,4α,5,6,7-hexahydrocyclopenta[f]indazol-5-yl]methyl}-N-(2-hydroxyethyl)-2-methylbenzenesulfonamide] | < 1000 nM
C[C@]12Cc3cnn(-c4ccc(F)cc4)c3C=C1CC[C@@H]2CN(CCO)S(=O)(=O)c1ccccc1C#N [Example 78, 2-cyano-N-{[(4αR,5S)-1-(4-fluorophenyl)-4α-methyl-1,4,4α,5,6,7-hexahydrocyclopenta[f]indazol-5-yl]methyl}-N-(2-hydroxyethyl)benzenesulfonamide] | < 1000 nM
C[C@]12Cc3cnn(-c4ccc(F)cc4)c3C=C1CC[C@@H]2CN(CCO)S(=O)(=O)c1ccc(Oc2ccccc2)cc1 [Example 79, N-{[(4αR,5S)-1-(4-fluorophenyl)-4α-methyl-1,4,4α,5,6,7-hexahydrocyclopenta[f]indazol-5-yl]methyl}-N-(2-hydroxyethyl)-4-phenoxybenzenesulfonamide] | < 1000 nM
C[C@]12Cc3cnn(-c4ccc(F)cc4)c3C=C1CC[C@@H]2CN(CCO)S(=O)(=O)c1cc(C(F)(F)F)ccc1Cl [Example 80, 2-chloro-N-{[(4αR,5S)-1-(4-fluorophenyl)-4α-methyl-1,4,4α,5,6,7-hexahydrocyclopenta[f]indazol-5-yl]methyl}-N-(2-hydroxyethyl)-5-(trifluoromethyl)benzenesulfonamide] | < 1000 nM
C[C@]12Cc3cnn(-c4ccc(F)cc4)c3C=C1CC[C@@H]2CN(CCO)S(=O)(=O)c1ccccc1Cl [Example 81, 2-chloro-N-{[(4αR,5S)-1-(4-fluorophenyl)-4α-methyl-1,4,4α,5,6,7-hexahydrocyclopenta[f]indazol-5-yl]methyl}-N-(2-hydroxyethyl)benzenesulfonamide] | < 1000 nM
C[C@]12Cc3cnn(-c4ccc(F)cc4)c3C=C1CC[C@@H]2CN(CCO)S(=O)(=O)c1ccc(F)cc1F [Example 82, 2,4-difluoro-N-{[(4αR,5S)-1-(4-fluorophenyl)-4α-methyl-1,4,4α,5,6,7-hexahydrocyclopenta[f]indazol-5-yl]methyl}-N-(2-hydroxyethyl)benzenesulfonamide] | < 1000 nM
Cc1nn(C)c(Cl)c1S(=O)(=O)N(CCO)C[C@H]1CCC2=Cc3c(cnn3-c3ccc(F)cc3)C[C@@]21C [Example 83, 5-chloro-N-{[(4αR,5S)-1-(4-fluorophenyl)-4α-methyl-1,4,4α,5,6,7-hexahydrocyclopenta[f]indazol-5-yl]methyl}-N-(2-hydroxyethyl)-1,3-dimethyl-1H-pyrazole-4-sulfonamide] | < 1000 nM
C[C@]12Cc3cnn(-c4ccc(F)cc4)c3C=C1CC[C@@H]2CN(CCO)S(=O)(=O)c1ccccc1-c1ccccc1 [Example 84, N-{[(4αR,5S)-1-(4-fluorophenyl)-4α-methyl-1,4,4α,5,6,7-hexahydrocyclopenta[f]indazol-5-yl]methyl}-N-(2-hydroxyethyl)biphenyl-2-sulfonamide] | < 1000 nM
CC(=O)Nc1ccc(S(=O)(=O)N(CCO)C[C@H]2CCC3=Cc4c(cnn4-c4ccc(F)cc4)C[C@@]32C)cc1 [Example 85, N-(4-{[{[(4αR,5S)-1-(4-fluorophenyl)-4α-methyl-1,4,4α,5,6,7-hexahydrocyclopenta[f]indazol-5-yl]methyl}(2-hydroxyethyl)amino]sulfonyl}phenyl)acetamide] | < 1000 nM
C[C@]12Cc3cnn(-c4ccc(F)cc4)c3C=C1CC[C@@H]2CN(CCc1ccccc1F)S(=O)(=O)c1ccccc1F [Example 86, 2-fluoro-N-[2-(2-fluorophenyl)ethyl]-N-{[(4αR,5S)-1-(4-fluorophenyl)-4α-methyl-1,4,4α,5,6,7-hexahydrocyclopenta[f]indazol-5-yl]methyl}benzenesulfonamide] | < 1000 nM
